## Library screen at single concentrations

Measurements from “University of Dundee, Small-Polar-MMV Screening Library” (2021), ChEMBL document CHEMBL3988442.

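Cell assay of Leishmania donovani living inside macrophages; the read-out is not stated. Compounds at 30 µM. The record gives no direction; compounds that gave an IC50 in retests scored well above the rest, so higher reads as stronger inhibition. About 69,000 compounds were tested under these conditions; 1.5% (about 1,000) showed 50% or more at least once.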

Each number is a percent effect as filed.
The controls that fix the scale are not given in the record; negative values are as filed.
This is an unselected part of the compounds tested.
Two or more numbers in one place are separate tests of the same structure; such repeats can differ widely.

- Cc1nc(C2CCCN(C(=O)c3cc4c(s3)CCCC4)C2)no1 (centres unmarked) : 29.45%
- Cc1ccc(CC(=O)N2CCC(c3nnc4n3CCC4)CC2)cc1 : 19.22%
- CN(Cc1ccc([S+](C)[O-])cc1)c1ccc(C(F)(F)F)cn1 (centres unmarked) : 54.49%
- NS(=O)(=O)NCc1cc(-c2ccc(C(F)(F)F)cc2)n[nH]1 : 9.26% & 24.22%
- CC(=O)N(C)CC(=O)NC1(c2ccc(Cl)c(Cl)c2)CC1 : 11.96%
- O=C(c1cnccn1)N1CCN(c2ccnc3ccsc23)CC1 : 12.73%
- CC[C@@]1(O)CCN(C(=O)c2ccc(-c3cccc(F)c3)cc2)C[C@H]1O : 15.78%
- Cc1nn(C)c2cnn(Cc3ccc(C(=O)NC4CC4)o3)c12 : 23.14%
- O=C(c1ccc2[nH]cnc2c1)N1CCC(Oc2ccccn2)CC1 : -0.807%
- CCOc1ccc(CC(CNC(=O)c2ccco2)C(N)=O)cc1 (centres unmarked) : -4.75%
- O=C(NCc1ccccc1CO)Nc1ccc2c(c1)CCO2 : -3.716%
- COc1ccc(-c2cc3nc(CCNC(=O)C4CC4)nn3cn2)cc1 : -16.7%
- COc1ccccc1OCC(=O)n1nc(C)c(C)c1C : 31.11%
- CN(C)C(=O)CN1CCC2(C1)CN(CC1CCOCC1)C2 : 9.547% & 36.81%
- CC1(C)CN(Cc2cc(C3CCCCC3)no2)CC[C@]1(C)O : 0.5973%
- Cc1nnc(CCNC2CCN(c3ncnc4c(C)csc34)CC2)s1 : 49.19%
- Cc1ccccc1C(=O)N1CCOC(c2ncc(CN(C)C)[nH]2)C1 (centres unmarked) : 18.26%
- CC(=O)NCCC1CCN(c2nc(C(C)(C)C)nc3c2cnn3C)CC1 : 8.365%
- CC[C@H]1COCCN1C(=O)c1ccc(OC)c(N2CCOCC2)c1 : 19.21%
- COCC1CN(S(=O)(=O)C2CC2)Cc2ncn(CC3CC3)c21 (centres unmarked) : -6.257%
- COCCNC(=O)CCC1CCN(Cc2cccc(SC)c2)CC1 : 2.987%
- Cc1cc(C(=O)N2CCN(C(=O)CCC3CCCCC3)CC2)n(C)n1 : 2.779%
- O=C(COCC1CC1)NCC(c1ccccc1)N1CCc2sccc2C1 (centres unmarked) : 26.27%
- O=C(O)C(F)(F)F.[H][C@@]12CCN(c3ccc(C)nn3)[C@@]1([H])CCN2C(=O)Cc1ccccc1 : -5.985%
- [H][C@@]12C[C@H](c3nc(C)no3)O[C@@]1([H])CCN(C(=O)C1CCOCC1)C2 : 60.92%
- COc1ccc(-c2nccc(C3CCCN3C)n2)cc1 (centres unmarked) : 21.99%
- Cc1cc2n(n1)CCN(c1nc(N(C)C)nc3c1CCNC3)C2 : 0.1437%
- Cc1nc(C2CCCN2CC(=O)N2CCc3ccccc32)no1 (centres unmarked) : -2.347%
- CN(CC(=O)NCC(F)(F)F)C(=O)c1ccc(=O)[nH]c1 : 25.06%
- Cc1cc(N(C)Cc2ncc[nH]2)nc(-c2cccnc2)n1 : 8.335%
- [H][C@@]12CN(Cc3ccco3)C[C@]1([H])OCCN2c1ccnc(N(C)C)n1 : 57.89%

Repeated from the top, 2 entries:

| structure | percent effect |
|---|---|
| `Cc1nc(C2CCCN(C(=O)c3cc4c(s3)CCCC4)C2)no1` (centres unmarked) | 29.45% |
| `Cc1ccc(CC(=O)N2CCC(c3nnc4n3CCC4)CC2)cc1` | 19.22% |